Laboratory results: the supplement of paper PMC12819154, “High-throughput peptide-centric local stability assay extends protein–ligand identification to membrane proteins, tissues and bacteria” (Nature Structural & Molecular Biology, 2025)
The other results are listed elsewhere or left out. Most entries show no effect beyond the scatter of the controls.

Chains of the proteins cited; added tags and fusions are not shown. Lines headed by an entry give the natural chain unless they say otherwise; changes in a name come on top.
UniProt Q9BWS9: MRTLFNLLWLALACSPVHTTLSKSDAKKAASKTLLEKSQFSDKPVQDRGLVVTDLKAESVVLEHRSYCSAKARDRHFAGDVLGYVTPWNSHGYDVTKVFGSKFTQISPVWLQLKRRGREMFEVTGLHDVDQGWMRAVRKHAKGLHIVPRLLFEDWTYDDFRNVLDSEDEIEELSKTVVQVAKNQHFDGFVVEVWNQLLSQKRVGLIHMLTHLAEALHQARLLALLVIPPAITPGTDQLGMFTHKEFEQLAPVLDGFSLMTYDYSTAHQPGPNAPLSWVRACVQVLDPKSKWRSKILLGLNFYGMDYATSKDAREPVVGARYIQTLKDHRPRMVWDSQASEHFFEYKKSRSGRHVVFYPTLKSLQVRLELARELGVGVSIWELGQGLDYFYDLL
UniProt Q9H147: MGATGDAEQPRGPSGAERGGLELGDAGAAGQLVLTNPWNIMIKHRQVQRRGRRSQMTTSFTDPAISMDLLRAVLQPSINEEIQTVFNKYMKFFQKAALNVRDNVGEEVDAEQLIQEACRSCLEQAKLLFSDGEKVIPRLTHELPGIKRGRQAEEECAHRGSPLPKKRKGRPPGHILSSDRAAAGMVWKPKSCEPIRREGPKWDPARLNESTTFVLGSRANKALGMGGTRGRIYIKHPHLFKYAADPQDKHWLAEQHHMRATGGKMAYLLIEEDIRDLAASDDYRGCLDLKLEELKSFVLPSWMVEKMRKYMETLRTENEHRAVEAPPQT
UniProt Q9GZY0: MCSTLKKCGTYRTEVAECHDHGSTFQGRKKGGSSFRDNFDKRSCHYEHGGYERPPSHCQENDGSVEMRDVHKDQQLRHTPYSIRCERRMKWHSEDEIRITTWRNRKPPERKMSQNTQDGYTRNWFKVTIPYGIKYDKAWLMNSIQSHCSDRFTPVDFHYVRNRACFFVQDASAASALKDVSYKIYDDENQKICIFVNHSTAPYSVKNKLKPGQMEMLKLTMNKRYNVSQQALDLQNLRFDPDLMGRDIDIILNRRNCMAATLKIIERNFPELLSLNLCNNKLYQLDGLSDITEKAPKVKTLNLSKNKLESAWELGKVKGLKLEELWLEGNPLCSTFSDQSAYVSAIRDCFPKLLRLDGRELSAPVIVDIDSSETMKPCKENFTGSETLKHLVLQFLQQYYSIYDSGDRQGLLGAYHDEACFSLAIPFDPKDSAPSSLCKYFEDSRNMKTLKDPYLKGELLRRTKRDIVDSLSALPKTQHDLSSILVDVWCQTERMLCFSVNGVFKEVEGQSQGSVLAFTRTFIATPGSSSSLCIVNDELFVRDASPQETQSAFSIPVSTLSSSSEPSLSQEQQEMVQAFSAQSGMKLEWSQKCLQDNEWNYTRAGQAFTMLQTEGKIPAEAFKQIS
UniProt Q9BWW9: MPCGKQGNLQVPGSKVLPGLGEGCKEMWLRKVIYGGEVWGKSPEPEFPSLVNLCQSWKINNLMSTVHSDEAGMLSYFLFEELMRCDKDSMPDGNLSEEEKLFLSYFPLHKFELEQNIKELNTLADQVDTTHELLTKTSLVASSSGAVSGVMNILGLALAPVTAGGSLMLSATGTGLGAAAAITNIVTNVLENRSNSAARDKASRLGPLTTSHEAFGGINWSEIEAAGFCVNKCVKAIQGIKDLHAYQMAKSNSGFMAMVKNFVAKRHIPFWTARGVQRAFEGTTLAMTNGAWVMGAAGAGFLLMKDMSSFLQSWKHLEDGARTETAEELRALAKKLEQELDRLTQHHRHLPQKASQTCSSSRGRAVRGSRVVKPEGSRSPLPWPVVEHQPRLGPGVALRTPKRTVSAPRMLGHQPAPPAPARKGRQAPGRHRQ
UniProt Q9H160: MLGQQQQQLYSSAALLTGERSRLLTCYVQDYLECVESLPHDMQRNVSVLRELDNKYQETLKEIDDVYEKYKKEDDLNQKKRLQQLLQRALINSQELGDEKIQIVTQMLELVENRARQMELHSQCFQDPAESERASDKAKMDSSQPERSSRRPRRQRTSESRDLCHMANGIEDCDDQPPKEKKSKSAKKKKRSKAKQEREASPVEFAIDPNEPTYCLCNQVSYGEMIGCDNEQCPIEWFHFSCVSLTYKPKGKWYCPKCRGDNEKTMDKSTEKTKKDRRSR
UniProt Q9H257: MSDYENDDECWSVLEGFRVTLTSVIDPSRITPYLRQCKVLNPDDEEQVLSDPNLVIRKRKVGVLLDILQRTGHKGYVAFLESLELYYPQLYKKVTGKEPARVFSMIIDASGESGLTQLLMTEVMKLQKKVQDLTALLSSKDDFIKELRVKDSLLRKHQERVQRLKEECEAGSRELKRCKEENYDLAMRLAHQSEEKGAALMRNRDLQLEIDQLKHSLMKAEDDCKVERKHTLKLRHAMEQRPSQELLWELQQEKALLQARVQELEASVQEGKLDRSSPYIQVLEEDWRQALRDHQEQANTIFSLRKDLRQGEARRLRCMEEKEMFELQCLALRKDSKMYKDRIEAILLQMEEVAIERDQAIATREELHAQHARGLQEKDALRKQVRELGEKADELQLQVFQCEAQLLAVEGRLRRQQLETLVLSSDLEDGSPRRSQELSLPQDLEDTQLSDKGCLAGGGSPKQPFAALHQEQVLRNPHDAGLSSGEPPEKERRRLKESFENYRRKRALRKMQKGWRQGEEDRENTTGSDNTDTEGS
UniProt Q9H074: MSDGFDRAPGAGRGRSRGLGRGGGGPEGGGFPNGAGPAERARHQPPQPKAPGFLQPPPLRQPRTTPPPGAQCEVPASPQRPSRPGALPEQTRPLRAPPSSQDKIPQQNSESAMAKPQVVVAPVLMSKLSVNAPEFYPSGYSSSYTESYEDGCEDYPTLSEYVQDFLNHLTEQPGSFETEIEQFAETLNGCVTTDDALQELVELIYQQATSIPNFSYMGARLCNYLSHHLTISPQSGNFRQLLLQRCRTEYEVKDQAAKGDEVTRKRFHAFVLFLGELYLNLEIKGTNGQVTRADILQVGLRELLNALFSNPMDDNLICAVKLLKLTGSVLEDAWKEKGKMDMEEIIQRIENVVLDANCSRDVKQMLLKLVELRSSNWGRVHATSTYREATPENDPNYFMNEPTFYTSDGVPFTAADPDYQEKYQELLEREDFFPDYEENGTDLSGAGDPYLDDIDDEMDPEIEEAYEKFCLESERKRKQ
UniProt Q9H270: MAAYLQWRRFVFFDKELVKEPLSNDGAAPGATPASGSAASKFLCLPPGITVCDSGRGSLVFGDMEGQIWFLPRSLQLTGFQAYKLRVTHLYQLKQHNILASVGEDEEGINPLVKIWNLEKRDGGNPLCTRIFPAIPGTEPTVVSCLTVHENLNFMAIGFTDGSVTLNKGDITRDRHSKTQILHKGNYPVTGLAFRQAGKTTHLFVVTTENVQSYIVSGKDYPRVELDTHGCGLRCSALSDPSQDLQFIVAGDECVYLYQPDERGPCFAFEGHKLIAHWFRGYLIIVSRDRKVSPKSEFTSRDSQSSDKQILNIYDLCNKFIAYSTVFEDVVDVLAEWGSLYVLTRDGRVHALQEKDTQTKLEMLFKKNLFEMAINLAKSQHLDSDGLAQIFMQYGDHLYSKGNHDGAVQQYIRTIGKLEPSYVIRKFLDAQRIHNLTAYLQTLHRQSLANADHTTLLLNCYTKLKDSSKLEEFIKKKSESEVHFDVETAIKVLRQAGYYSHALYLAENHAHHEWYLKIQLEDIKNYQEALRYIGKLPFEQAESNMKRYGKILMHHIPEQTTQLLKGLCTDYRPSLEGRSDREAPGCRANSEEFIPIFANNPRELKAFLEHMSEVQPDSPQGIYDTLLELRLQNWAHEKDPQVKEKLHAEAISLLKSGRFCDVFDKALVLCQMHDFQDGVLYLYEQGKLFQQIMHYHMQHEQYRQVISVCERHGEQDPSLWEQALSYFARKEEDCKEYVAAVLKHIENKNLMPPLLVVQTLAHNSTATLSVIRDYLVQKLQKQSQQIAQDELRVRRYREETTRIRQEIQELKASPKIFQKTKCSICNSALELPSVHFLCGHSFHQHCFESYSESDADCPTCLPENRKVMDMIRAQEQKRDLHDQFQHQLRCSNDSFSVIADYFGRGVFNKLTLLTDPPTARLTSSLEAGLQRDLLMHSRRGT
UniProt Q9BZH6: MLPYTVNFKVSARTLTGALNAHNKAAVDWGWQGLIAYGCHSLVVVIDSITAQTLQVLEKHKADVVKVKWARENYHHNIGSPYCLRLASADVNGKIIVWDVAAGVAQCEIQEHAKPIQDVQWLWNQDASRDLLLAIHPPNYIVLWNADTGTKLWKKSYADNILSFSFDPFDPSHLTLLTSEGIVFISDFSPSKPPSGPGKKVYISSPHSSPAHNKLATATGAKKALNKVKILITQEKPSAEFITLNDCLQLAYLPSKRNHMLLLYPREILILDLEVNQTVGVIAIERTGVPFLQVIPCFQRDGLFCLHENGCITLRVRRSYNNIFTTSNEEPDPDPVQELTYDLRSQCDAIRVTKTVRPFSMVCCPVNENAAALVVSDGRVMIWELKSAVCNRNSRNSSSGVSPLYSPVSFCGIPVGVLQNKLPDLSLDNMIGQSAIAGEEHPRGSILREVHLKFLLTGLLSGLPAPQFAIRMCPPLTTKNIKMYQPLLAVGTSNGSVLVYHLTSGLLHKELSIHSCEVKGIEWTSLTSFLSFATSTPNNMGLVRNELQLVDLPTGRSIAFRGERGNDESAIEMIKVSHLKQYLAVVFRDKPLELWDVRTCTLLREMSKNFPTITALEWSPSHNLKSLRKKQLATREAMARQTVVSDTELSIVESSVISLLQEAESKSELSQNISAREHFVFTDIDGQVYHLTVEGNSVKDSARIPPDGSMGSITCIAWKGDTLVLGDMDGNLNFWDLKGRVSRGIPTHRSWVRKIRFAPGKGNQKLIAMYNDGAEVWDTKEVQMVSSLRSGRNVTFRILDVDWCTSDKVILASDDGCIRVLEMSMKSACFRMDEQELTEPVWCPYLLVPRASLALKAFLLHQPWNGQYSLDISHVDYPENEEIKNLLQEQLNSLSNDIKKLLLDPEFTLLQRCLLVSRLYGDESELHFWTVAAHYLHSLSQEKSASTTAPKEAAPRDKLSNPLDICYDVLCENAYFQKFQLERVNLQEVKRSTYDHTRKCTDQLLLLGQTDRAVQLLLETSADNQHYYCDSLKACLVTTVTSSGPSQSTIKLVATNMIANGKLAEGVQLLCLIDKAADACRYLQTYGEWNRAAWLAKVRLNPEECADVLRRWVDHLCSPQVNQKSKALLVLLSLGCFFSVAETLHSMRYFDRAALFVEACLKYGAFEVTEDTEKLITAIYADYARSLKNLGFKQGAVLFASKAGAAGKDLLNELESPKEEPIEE
UniProt Q9BXD5: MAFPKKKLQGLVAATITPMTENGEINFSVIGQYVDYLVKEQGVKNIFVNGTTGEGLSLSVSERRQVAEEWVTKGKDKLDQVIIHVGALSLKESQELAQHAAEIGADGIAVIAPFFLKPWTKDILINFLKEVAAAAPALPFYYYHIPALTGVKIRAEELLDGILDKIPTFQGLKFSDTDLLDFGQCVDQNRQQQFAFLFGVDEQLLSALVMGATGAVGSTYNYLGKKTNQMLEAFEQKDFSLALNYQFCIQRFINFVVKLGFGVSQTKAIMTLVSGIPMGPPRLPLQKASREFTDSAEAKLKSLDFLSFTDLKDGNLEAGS

compound: CN[C@@H]1C[C@H]2O[C@@](C)([C@@H]1OC)n1c3ccccc3c3c4c(c5c6ccccc6n2c5c31)C(=O)NC4 [staurosporine]; test: log2 fold change of tryptic peptide abundance, ligand vs vehicle (limited proteolysis) (log2 ratio); higher = more trypsin-susceptible (destabilized); settings: ligand concentration: 20 uM; sample: K562 cleared lysate; digestion: 4 min, 22 C (HT-PELSA RT4min, Orbitrap Astral)

| Target | log2 fold change |
| --- | --- |
| CHID1 (peptide sequence: AESVVLEHR, peptide start residue: 57) (UniProt Q9BWS9) | 0.661 |
| DNTTIP1 (peptide sequence: EGPKWDPAR, peptide start residue: 198) (UniProt Q9H147) | 0.395 |
| WDR12 (peptide sequence: YSPTTSHVGA, peptide start residue: 414) (UniProt Q9GZL7) | 0.118 |
| NXF2 (peptide sequence: DSAPSSLCK, peptide start residue: 431) (UniProt Q9GZY0) | -0.394 |
| UniProt Q9BWW9 (peptide sequence: LEQELDR, peptide start residue: 336) | 0.0246 |
| ING2 (peptide sequence: DLCHMANGIEDCDDQPPKEKK, peptide start residue: 162) (UniProt Q9H160) | 0.916 |
| CARD9 (peptide sequence: NPHDAGLSSGEPPEKER, peptide start residue: 476) (UniProt Q9H257) | -0.145 |
| PAIP1 (peptide sequence: VHATSTYR, peptide start residue: 380) (UniProt Q9H074) | 0.314 |
| VPS11 (peptide sequence: DSSKLEEFIK, peptide start residue: 466) (UniProt Q9H270) | -0.841 |
| WDR11 (peptide sequence: LATATGAKK, peptide start residue: 215) (UniProt Q9BZH6) | -0.32 |
| NPL (peptide sequence: GKDKLDQVIIHVGALSLK, peptide start residue: 74) (UniProt Q9BXD5) | 0.798 |
